Results published in US20250143297A1, “Arthropod Control Compositions” (FIRMENICH SA, priority 2022, published 2025).
Some entries share one result that the patent states for a list of compounds.

Test system: Aedes aegypti
Assay: Warm Body assay, repellence of mosquito landing on treated warm body
Format: in vivo
Settings: intermediate dose of 0.04%

Row | SMILES | repellent effect
1 | COC(C)(C)c1ccc(CCC=O)c(C)c1 [compound 875, 3-[4-(2-methoxy-2-propanyl)-2-methylphenyl]propanal] | > 75%
2 | CC(C)c1cccc(C(C)CC=O)c1 (centres unmarked) [compound 1389, 3-(3-propan-2-ylphenyl)butanal] | > 75%
